According to patent publication US20230159990:
For part of these data: For at least one entry, the source does not settle the construct or the ends of the probe. For part of these data: Negatives hold for the conditions tested.

The chains behind the UniProt entries cited, without tags or fusion partners. Residues count along the entry.
UniProt P16422, 24-265: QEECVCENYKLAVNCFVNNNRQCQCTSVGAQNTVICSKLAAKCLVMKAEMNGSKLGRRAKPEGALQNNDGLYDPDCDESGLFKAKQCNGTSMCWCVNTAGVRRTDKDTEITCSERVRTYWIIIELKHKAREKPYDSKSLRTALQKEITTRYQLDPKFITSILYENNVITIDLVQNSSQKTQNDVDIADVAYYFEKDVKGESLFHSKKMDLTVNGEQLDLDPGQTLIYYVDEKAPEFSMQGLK

Columns and labels:
[1] = system: DNA polymerase (species not stated); assay: inhibition of the protein; conditions: purified recombinant protein, dose not given here
[2] = system: DNA polymerase (species not stated); assay: activity assay; conditions: polymerase elongation destroys hemin DNAzyme peroxidase activity; dose- and time-dependent; purified recombinant protein; folded or branched DNA
[3] = target: EPCAM (UniProt P16422); assay: activity in cells; conditions: increasing polymerase activity with more EPCAM-expressing cells; indirect readout; protein on the cell surface; dose not given here

TGCAAGGCCGGCTTCGCGGGCAATGTACAGTATTG / CCCGCGAAGCCGGCCTTGCACATGCCGGAGCCGTTGTCGA / GAGTACCGCCCCCCGGTTTGGTACGGCGGCGGTGCGACAA [Recognition nanostructure + scrambled sequence]
functional effect of the aptamer ([1]; no signal even with 10^11 copies of scrambled sequence, polymerase stays inhibited): active

TGCAAGGCCGGCTTCGCGGGCAATGTACAGTATTG / CCCGCGAAGCCGGCCTTGCACATGCCGGAGCCGTTGTCGA [Recognition nanostructure (polymerase aptamer + inverter)]
functional effect of the aptamer ([1]; binds and inhibits DNA polymerase, in solution and surface immobilised): active

TGCAAGGCCGGCTTCGCGGGCAATGTACAGTATTG / CCCGCGAAGCCGGCCTTGCACATGCCGGAGCCGTTGTCGA / UCGACAACGGCUCCGGCAUGUGCAAGGCCGGCUUCGCGGG [Recognition nanostructure + RNA target (human beta actin)]
functional effect of the aptamer ([1]; RNA target relieves inhibition as efficiently as DNA target): not active

CTGGGAGGGAGGGAGGGAATGCTAACGCATTGTCGATAGCTCTGTCGCTATCGACAATGCGTT [G-quadruplex hemin DNAzyme catalytic nanostructure 1]
activity on this sequence [2]: active

CAGACGCAACCTCTGTAGTGCAATGTACAGTATTG / CACTACAGAGGTTGCGTCTGTCCCACGTTGTCATGGGGGGTTGGCCTG [EPCAM aptamer/inverter recognition nanostructure]
functional effect of the aptamer [3]: active

TGCAAGGCCGGCTTCGCGGGCAATGTACAGTATTG / CCCGCGAAGCCGGCCTTGCACATGCCGGAGCCGTTGTCGA / TCGACAACGGCTCCGGCATGTGCAAGGCCGGCTTCGCGGG [Recognition nanostructure + DNA target (human beta actin)]
functional effect of the aptamer ([1]; target hybridisation activates polymerase (inhibition relieved)): not active
